In the supplement of paper PMC12823440, “Inhibitors supercharge kinase turnover through native proteolytic circuits” (Nature, 2025):
The list shows a part of the results. Hit calls seldom repeat between salt and free forms of one compound.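 In K562 cells expressing nanoluciferase-fused kinases, luminescence was recorded at 4 h intervals between 2 and 18 h, normalized as percent of control with DMSO at 100% and a positive control at 0%. A significant (2 sigma) signal drop marks a time point as decreased. The authors' rule for a hit is not shown and takes in more than the number of time points.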

Chains of the proteins cited; added tags and fusions are not shown. Lines headed by an entry give the natural chain unless they say otherwise; changes in a name come on top.
UniProt Q9Y616: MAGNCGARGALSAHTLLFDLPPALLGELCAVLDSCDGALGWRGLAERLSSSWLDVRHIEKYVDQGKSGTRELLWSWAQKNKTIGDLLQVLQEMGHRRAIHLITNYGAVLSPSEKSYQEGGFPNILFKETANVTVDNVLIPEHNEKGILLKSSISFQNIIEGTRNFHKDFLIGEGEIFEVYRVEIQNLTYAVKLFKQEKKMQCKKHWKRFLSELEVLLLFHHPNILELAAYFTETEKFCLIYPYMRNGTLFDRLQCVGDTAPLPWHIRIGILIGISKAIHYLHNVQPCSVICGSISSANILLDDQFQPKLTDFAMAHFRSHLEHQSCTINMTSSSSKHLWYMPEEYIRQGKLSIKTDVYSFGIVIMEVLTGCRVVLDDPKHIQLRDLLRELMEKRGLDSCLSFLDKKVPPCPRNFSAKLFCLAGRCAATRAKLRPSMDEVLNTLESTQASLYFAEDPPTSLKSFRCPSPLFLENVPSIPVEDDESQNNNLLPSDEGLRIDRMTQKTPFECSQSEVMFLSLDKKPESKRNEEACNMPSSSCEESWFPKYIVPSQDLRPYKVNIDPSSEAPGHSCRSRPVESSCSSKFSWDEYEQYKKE
UniProt P23458: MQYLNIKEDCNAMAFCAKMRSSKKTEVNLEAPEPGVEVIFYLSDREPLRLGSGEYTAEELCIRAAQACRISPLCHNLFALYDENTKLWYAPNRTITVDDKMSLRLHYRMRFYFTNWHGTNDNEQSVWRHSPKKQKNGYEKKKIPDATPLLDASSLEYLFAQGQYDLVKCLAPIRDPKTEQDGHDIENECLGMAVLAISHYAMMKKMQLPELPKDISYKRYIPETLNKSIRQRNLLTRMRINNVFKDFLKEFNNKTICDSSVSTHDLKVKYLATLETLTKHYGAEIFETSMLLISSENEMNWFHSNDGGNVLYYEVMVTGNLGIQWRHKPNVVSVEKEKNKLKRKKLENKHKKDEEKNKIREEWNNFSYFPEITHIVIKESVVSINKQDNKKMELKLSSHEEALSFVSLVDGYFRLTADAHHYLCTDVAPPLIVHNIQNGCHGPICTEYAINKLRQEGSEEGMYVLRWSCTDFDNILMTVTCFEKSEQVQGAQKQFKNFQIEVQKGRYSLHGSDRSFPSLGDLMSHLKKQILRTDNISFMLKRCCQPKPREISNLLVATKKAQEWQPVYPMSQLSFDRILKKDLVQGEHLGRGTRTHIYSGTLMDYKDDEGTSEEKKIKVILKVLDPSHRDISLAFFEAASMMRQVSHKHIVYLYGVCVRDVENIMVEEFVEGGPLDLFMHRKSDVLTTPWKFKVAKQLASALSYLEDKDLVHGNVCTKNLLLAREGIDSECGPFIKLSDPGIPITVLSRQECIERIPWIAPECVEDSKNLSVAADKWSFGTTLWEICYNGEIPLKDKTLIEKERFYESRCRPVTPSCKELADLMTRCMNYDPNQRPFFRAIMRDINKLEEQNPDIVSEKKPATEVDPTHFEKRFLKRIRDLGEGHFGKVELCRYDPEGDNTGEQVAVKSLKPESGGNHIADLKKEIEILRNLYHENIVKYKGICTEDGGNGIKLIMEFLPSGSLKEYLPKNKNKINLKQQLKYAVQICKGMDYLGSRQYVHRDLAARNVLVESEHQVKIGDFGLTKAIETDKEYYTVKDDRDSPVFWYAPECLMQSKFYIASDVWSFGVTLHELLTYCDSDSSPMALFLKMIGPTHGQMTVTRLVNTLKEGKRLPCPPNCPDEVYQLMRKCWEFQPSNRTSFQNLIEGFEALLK
UniProt P06239: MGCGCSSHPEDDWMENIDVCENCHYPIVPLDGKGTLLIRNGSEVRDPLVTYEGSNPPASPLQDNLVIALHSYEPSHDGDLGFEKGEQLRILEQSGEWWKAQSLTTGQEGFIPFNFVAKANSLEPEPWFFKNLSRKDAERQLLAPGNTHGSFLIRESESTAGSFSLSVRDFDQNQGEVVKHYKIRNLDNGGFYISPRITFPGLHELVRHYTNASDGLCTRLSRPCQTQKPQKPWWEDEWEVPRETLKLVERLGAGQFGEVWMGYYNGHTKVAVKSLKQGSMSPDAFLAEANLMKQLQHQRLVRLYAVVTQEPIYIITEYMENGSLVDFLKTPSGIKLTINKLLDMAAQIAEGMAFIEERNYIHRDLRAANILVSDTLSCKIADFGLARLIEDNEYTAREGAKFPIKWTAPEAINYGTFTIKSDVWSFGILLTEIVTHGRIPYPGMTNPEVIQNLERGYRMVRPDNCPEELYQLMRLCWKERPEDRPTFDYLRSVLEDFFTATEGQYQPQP
UniProt P53667: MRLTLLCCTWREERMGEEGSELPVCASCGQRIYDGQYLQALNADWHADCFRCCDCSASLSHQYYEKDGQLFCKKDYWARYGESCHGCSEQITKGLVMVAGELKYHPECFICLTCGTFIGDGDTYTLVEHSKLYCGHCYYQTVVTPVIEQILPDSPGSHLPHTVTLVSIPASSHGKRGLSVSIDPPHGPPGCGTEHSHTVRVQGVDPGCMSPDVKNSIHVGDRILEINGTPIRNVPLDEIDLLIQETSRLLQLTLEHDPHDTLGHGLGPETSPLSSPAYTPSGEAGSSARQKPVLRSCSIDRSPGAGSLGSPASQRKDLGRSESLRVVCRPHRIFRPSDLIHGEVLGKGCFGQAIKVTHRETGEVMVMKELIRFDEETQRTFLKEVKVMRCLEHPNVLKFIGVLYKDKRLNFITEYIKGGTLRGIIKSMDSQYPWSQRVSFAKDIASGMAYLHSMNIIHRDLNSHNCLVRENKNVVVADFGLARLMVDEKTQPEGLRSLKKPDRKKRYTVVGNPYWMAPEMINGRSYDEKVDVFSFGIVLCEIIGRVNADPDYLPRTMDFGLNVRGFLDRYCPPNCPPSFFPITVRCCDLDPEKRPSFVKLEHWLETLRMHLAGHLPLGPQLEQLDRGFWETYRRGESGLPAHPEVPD
UniProt P53671: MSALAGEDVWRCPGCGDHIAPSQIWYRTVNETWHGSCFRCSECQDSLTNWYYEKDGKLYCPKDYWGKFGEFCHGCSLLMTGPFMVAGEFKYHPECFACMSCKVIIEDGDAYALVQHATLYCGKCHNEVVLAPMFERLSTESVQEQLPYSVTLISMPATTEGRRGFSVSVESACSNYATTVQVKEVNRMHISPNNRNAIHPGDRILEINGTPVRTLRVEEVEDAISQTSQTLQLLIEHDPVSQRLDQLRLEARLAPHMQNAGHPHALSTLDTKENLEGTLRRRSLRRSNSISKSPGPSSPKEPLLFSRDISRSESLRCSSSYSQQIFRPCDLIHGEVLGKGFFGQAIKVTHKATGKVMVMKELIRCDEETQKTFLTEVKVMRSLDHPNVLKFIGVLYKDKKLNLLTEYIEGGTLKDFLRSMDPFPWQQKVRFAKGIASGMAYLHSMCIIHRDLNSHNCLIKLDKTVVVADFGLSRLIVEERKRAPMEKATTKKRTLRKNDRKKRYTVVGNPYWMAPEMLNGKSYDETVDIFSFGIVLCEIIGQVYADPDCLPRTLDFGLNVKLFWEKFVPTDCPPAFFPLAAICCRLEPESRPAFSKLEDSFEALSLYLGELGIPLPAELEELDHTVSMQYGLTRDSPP
UniProt Q8IWU2: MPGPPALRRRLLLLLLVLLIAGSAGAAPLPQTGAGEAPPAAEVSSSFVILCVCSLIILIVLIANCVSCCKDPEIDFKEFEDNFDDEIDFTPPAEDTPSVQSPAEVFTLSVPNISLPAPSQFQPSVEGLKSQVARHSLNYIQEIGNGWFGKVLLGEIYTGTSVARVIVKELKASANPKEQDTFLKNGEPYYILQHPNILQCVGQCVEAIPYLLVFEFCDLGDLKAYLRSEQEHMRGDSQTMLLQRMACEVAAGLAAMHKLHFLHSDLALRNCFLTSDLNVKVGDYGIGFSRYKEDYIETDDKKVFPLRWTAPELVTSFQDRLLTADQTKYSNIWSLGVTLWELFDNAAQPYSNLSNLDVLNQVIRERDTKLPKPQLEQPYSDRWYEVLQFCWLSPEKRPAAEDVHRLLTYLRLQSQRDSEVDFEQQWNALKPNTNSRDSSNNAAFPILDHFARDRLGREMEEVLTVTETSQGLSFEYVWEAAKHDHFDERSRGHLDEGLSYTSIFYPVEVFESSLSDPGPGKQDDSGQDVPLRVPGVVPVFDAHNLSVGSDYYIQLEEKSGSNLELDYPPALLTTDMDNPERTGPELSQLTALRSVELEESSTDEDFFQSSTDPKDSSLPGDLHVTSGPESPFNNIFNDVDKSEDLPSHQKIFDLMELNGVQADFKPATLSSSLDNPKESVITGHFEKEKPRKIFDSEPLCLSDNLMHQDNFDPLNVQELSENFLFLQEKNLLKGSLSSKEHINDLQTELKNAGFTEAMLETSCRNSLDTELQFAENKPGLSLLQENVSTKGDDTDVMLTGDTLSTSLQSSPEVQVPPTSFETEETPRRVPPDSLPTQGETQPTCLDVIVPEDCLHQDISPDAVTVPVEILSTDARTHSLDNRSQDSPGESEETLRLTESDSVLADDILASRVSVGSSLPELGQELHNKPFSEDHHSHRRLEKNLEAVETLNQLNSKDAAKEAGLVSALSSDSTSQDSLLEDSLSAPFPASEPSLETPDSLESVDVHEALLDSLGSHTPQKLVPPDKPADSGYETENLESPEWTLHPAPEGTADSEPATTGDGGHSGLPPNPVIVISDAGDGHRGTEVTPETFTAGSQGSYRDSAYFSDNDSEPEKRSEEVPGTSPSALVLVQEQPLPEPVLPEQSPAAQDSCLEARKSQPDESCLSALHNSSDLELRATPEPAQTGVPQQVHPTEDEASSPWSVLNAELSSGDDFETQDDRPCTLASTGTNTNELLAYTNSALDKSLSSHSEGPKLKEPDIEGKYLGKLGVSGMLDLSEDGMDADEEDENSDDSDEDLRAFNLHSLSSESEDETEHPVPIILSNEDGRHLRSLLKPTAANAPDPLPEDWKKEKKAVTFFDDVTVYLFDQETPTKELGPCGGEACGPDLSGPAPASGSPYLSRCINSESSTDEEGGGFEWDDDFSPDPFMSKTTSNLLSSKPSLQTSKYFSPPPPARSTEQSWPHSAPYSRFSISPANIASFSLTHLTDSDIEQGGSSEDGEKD
UniProt P07948: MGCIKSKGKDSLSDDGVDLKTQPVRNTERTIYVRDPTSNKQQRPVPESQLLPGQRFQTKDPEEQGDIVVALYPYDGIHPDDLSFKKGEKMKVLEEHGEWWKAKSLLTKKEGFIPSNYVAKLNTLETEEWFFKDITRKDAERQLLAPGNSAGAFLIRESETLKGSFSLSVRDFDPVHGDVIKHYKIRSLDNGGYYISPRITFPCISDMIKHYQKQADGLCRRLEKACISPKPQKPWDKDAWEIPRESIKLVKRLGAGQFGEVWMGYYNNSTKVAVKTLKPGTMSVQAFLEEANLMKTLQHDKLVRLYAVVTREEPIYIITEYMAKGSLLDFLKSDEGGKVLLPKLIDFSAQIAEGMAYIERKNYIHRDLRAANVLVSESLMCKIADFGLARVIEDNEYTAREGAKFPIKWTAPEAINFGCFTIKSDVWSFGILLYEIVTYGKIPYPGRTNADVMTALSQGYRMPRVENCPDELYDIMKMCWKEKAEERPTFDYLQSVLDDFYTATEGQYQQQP
UniProt Q12851: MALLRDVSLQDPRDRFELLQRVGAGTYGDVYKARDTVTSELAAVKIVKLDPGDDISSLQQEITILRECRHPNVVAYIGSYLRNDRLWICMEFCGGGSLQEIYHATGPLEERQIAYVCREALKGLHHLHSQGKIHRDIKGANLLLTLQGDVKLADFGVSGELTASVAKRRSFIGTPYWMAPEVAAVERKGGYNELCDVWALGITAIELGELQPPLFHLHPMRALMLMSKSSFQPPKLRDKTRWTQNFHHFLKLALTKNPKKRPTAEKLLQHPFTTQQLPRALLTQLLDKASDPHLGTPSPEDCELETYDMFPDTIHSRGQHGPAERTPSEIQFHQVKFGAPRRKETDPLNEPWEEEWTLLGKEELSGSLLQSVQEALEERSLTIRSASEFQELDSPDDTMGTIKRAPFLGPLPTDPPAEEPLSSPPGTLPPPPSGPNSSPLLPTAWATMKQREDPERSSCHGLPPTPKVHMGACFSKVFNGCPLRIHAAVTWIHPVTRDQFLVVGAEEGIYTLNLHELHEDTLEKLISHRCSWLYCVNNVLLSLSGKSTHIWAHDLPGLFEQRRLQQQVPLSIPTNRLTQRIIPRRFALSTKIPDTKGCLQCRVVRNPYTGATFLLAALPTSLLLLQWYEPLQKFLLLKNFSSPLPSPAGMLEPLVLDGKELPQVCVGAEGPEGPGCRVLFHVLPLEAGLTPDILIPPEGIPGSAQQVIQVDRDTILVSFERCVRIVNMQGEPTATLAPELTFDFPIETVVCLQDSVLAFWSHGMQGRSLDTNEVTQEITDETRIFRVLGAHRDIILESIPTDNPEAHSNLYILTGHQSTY

How the values were obtained:
Experiment in all cases: kinase-Nluc reporter destabilization hit call (1 = scored as downregulated) (binary); higher = compound decreases kinase abundance
Settings in all cases: K562; 2-18 h
IRAK3 = IRAK3 (UniProt Q9Y616)
JAK1 = JAK1 (UniProt P23458)
LCK = LCK (UniProt P06239)
LIMK1 = LIMK1 (UniProt P53667)
LIMK2 = LIMK2 (UniProt P53671)
LMTK2 = LMTK2 (UniProt Q8IWU2)
LYN = LYN (UniProt P07948)
MAP2K1 = MAP2K1 (UniProt Q02750)
MAP2K2 = MAP2K2 (UniProt P36507)
MAP4K2 = MAP4K2 (UniProt Q12851)

Measured: kinase-Nluc reporter destabilization hit call

CC1CN(CC2CCN(Cc3ccccc3)CC2)C(=O)N(c2cccc(C(=N)N)c2)C1 (stereo not given) (10 µM)
inactive: IRAK3 = 0 | JAK1 = 0 | LCK 0 | LIMK1 = 0 | LIMK2 = 0 | LMTK2 = 0 | LYN 0 | MAP2K1 = 0 | MAP2K2 = 0 | MAP4K2 = 0

Oc1c(F)cc(-c2cnccc2-c2ccc(N3CCOCC3)cc2)cc1F (10 µM)
inactive: IRAK3 = 0 | JAK1 = 0 | LCK 0 | LIMK1 = 0 | LIMK2 = 0 | LMTK2 = 0 | LYN 0 | MAP2K1 = 0 | MAP2K2 = 0 | MAP4K2 = 0

CNC(=O)c1ccc2c(C(=Nc3cccc(CN(C)C)c3)c3ccccc3)c(O)[nH]c2c1 [MEK inhibitor] (10 µM)
inactive: IRAK3 = 0 | JAK1 = 0 | LCK 0 | LIMK1 = 0 | LIMK2 = 0 | LMTK2 = 0 | LYN 0 | MAP2K1 = 0 | MAP2K2 = 0 | MAP4K2 = 0
